In US20230074657A1:
Results are given in words; binding and its absence hold for the method and conditions named. Some binding calls cover weakened binding; strength is not graded here.

Protein sequences, listed by entry. Tags and fused reporters are not part of them. Residues count along the entry.
UniProt P18627, residues 23-450: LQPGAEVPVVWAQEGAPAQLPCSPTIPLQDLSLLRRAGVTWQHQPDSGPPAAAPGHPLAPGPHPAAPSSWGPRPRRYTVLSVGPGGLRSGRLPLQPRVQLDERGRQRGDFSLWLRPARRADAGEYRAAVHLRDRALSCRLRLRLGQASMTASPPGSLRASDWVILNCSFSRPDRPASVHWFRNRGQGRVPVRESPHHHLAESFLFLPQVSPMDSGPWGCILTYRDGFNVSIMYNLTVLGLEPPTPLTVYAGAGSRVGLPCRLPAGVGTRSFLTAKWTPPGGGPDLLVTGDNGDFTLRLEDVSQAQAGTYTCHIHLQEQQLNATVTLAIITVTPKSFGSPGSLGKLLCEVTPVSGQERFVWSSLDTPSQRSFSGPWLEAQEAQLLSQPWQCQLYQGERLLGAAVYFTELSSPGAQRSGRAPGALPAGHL

What was measured:
[1] = biological target: LAG3-Fc recombinant protein (UniProt P18627); test: ELISA, plate coated with LAG3-Fc
[2] = biological target: LAG3-Fc recombinant protein (UniProt P18627); test: ELISA on coated LAG3-Fc, anti-human kappa-HRP

binding [1]: binds | binding [2]: binds
B1: anti-LAG3 chimeric antibody c6H11B10 (antibody, human IgG4 S228P, V domains shown)
VH: EVQVVESGGGLVKPGGSLKLSCAASGFTFSDYYMFWVRQTPEERLEWVATINDGGDYTNYPDSVKGRFTISRDNDKNKLYLQMNSLKSEDTAMYYCARESGIYYDYASFGYWGQGTLVTVSS
VL: DIVMTQAAFSNPVTLGTSASISCRSSKSLLYSNGITYLYWYLQKPGQSPQLLIYQMSNLASGVPDRFSSSGSGTDFTLRISRVEAEDVGVYYCAQNLELPWTFGGGTKLEIKR
